Experimental data reported in the supplement of paper PMC12823440, “Inhibitors supercharge kinase turnover through native proteolytic circuits” (Nature, 2025).
Structures can show the parent of a compound that is named as a salt. This is one part of the list. The calls rarely recur for the same compound in another form.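 In K562 cells expressing nanoluciferase-fused kinases, luminescence was recorded at 4 h intervals between 2 and 18 h, normalized as percent of control with DMSO at 100% and a positive control at 0%. A significant (2 sigma) signal drop marks a time point as decreased. The authors' rule for a hit is not shown and takes in more than the number of time points.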

The chains behind the UniProt entries cited, without tags or fusion partners. Where a name states a change or a piece, a line headed by the entry shows the natural chain unless it says otherwise.
UniProt O96013: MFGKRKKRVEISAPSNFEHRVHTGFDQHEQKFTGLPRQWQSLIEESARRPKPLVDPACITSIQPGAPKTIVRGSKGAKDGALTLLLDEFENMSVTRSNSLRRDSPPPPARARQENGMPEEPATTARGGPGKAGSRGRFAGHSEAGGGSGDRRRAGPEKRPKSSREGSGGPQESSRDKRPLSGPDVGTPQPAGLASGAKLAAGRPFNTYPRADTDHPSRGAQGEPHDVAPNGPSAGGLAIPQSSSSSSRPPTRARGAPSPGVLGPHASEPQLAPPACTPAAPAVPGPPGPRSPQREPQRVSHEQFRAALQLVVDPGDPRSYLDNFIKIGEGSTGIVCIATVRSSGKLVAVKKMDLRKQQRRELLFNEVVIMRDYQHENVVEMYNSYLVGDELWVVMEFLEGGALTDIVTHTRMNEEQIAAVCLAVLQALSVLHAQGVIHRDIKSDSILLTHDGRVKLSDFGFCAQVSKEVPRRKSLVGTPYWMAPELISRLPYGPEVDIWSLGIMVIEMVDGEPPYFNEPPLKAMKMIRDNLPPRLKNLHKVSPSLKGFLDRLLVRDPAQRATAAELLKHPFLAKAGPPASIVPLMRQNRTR

These compounds were tested against PAK4 (UniProt O96013) (assay: kinase-Nluc reporter destabilization hit call (1 = scored as downregulated) (binary); higher = compound decreases kinase abundance). Details: 2.5 µM; K562; 2-18 h.

kinase-Nluc reporter destabilization hit call, inactive:
CN1CCCN(C(=O)c2cccc(-c3ccc(/C=C4/C(=O)Nc5ccc(Cl)cc54)o3)c2)CC1 [CX-6258 (hydrochloride)] 0, Clc1ccc(C2(c3ccc(-c4cn[nH]c4)cc3)CCNCC2)cc1 [AT7867 (dihydrochloride)] 0, CC(C)Oc1ccc(-c2nn([C@@H](C)c3oc4ccc(F)cc4c(=O)c3-c3cccc(F)c3)c3ncnc(N)c23)cc1F [Umbralisib] 0, C=CC(=O)Nc1cc(Nc2nccc(-c3cn(C)c4ccccc34)n2)c(OC)cc1N(C)CCN(C)C [Osimertinib] 0, COc1cc2c(Oc3ccc4[nH]c(C)cc4c3F)ncnc2cc1OCCCN1CCCC1 [Cediranib (maleate)] 0, CC(C)Oc1ccc(-c2nn([C@@H](C)c3oc4ccc(F)cc4c(=O)c3-c3cccc(F)c3)c3ncnc(N)c23)cc1F [Umbralisib (hydrochloride)] 0, COc1ccc(S(=O)(=O)N(CCO)c2ccccc2CN(C)C/C=C/c2ccc(Cl)cc2)cc1 [KN-93 (hydrochloride)] 0, C=CC(=O)N1CCN(c2ncnc3c(F)c(-c4c(O)cccc4F)c(Cl)cc23)CC1 0, COc1ccc(S(=O)(=O)Nc2ccccc2CN(C)C/C=C/c2ccc(Cl)cc2)cc1 [KN-92 (hydrochloride)] 0, CCN(CC)Cc1ccc(OC)c(-c2cc3c(-c4ccc(C(=O)O)c(C(C)C)c4)ccnc3[nH]2)c1 0, CN(C)C/C=C/C(=O)Nc1cc2c(Nc3ccc(F)c(Cl)c3)ncnc2cc1O[C@H]1CCOC1 [Afatinib (dimaleate)] 0, Oc1cccc(-c2nc(N3CCOCC3)c3oc4ncccc4c3n2)c1 [PI-103 (Hydrochloride)] 0, c1cc(-c2cnn3cc(-c4ccc(OCCN5CCCCC5)cc4)cnc23)ccn1 [Dorsomorphin] 0, COc1ccc(S(=O)(=O)N(CCO)c2ccccc2CN(C)C/C=C/c2ccc(Cl)cc2)cc1 [KN-93 (phosphate)] 0, Nc1ncnc2c1c(-c1ccc(Oc3ccccc3)cc1)nn2[C@@H]1CCCNC1 [IBT6A (hydrochloride)] 0

Same assay, conditions: 10 µM; K562; 2-18 h

kinase-Nluc reporter destabilization hit call, inactive:
COc1cc2nccc(Oc3ccc(NC(=O)C4(C(=O)Nc5ccc(F)cc5)CC4)cc3)c2cc1OC [Cabozantinib (S-malate)] 0, Cn1cc(-c2cnc3ccc4ccc(CS(=O)(=O)NCc5ccccn5)cc4c(=O)c3c2)cn1 [MK-8033 (hydrochloride)] 0, CNC(=O)c1ccc(Nc2ncc(C(F)(F)F)c(NCc3nccnc3N(C)S(C)(=O)=O)n2)cc1 [Defactinib] 0, N#CCNC(=O)c1ccc(-c2ccnc(Nc3ccc(N4CCOCC4)cc3)n2)cc1 [Momelotinib] 0, CC(=O)c1c(C)c2cnc(Nc3ccc(N4CCNCC4)cn3)nc2n(C2CCCC2)c1=O [Palbociclib (isethionate)] 0, Nc1cncc(-c2cn3ccnc3c(Nc3ccc(N4CCN(C5COC5)CC4)cc3)n2)n1 [Lanraplenib (succinate)] 0, C#Cc1cccc(Nc2ncnc3cc4c(cc23)OCCOCCOCCO4)c1 [Icotinib] 0, O=C(O)c1ccc2c(c1)nc(Nc1cccc(Cl)c1)c1ccncc12 [Silmitasertib (sodium salt)] 0, CC(C)Nc1cc(-c2c[nH]c(C(=O)N[C@H](CO)c3cccc(Cl)c3)c2)c(Cl)cn1 [Ulixertinib (hydrochloride)] 0, C=CC(=O)N1CCN(c2ncnc3c(F)c(-c4c(O)cccc4F)c(Cl)cc23)CC1 0, CN(C)C(=O)c1cc2cnc(Nc3ccc(N4CCNCC4)cn3)nc2n1C1CCCC1 [Ribociclib] 0, COc1cc2c(-c3cnn4cc(N5CCC(N6CCN(C)CC6)CC5)cnc34)ccnc2cc1F [ALK2-IN-4 (succinate)] 0, CCN(CC)Cc1ccc(OC)c(-c2cc3c(-c4ccc(C(=O)O)c(C(C)C)c4)ccnc3[nH]2)c1 0, O=C(c1nn(-c2ccc(CN3CCOCC3)cc2)c2c1CS(=O)(=O)c1c(F)cccc1-2)N1CCOCC1 0, CC(C)(C)n1nc(-c2cccc3ccccc23)c2c(N)ncnc21 [1-Naphthyl PP1 (hydrochloride)] 0, CCN(CC)CC(=O)Nc1c(C)cccc1C [Lidocaine (hydrochloride)] 0, Cn1ncc(Cl)c1-c1cc(C(=O)N[C@H](CN)Cc2cccc(F)c2)sc1Cl [Afuresertib (hydrochloride)] 0, COc1cc2c(cc1OC)-c1c(C)c3ccc(OC)c(OC)c3c[n+]1CC2 [Dehydrocorydaline] 0, C[C@H](CCC(=O)NCCS(=O)(=O)O)[C@H]1CC[C@H]2[C@@H]3[C@@H](O)C[C@@H]4C[C@H](O)CC[C@]4(C)[C@H]3CC[C@]12C [Tauroursodeoxycholate (dihydrate)] 0, OCCn1cc(-c2cnc3nnn(Cc4ccc5ncccc5c4)c3n2)cn1 0, C[S+]([O-])c1ccc(-c2nc(-c3ccc(F)cc3)c(-c3ccncc3)[nH]2)cc1 (configuration not stated) 0, CC(C)(C)n1nc(-c2cccc3ccccc23)c2c(N)ncnc21 [1-Naphthyl PP1] 0
